# About 7,700 (2.3%) of roughly 330,000 compounds were called active. The inconclusive results got no clear call from the source; some entries with a clear call stand among them for comparison. Calls follow the shape of the dose curve; as a rule, active = well fitted inhibition curve with a large enough effect; inconclusive = small, poorly fitted or top-dose-only effect, or effect the other way; inactive = flat fitted curve, though single readings scatter. Potencies of inconclusive entries are doubtful fits and often do not repeat.
# Assay: qHTS screen for small molecules that inhibit ELG1-dependent DNA repair in human embryonic kidney (HEK293T) cells expressing luciferase-tagged ELG1; also: nearly all actives have a fitted effect of over 55% in size
# Conditions: HEK293T ELG1-luciferase reporter, luminescence, 16 h, DNA damage induced by 5-fluorouridine; activity change, negative = inhibition: at 46.1 µM (top of the series)
# How it was run: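 Luminescence from the luciferase reporter, measured 30 min after ONE-Glo reagent at room temperature, was the read-out. Beforehand, 2,000 cells per well were exposed for 16 hr at 37 °C to 5-fluorouridine together with compound or vehicle.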
# % is scaled to controls: 0 for no effect and ±100 for the full control effect; potency is read from the fitted curve at half-maximal effect.
Structure (SMILES),"activity change, negative = inhibition",Potency
COC(=O)/C=C1/S/C(=N/N=C/c2ccco2)NC1=O,inactive: -3.72%,–
COc1ccccc1N1CCN(C(=O)CCCCCn2c(=O)[nH]c3ccsc3c2=O)CC1,–,"inconclusive: 29.1 µM [inhibitor, single point]"
CCN=C1SC(CC(=O)Nc2ccc(C(F)(F)F)cc2)C(=O)N1CC (centres undefined),inactive: 0.421%,–
c1coc(Cn2c(SCc3nc4ccccc4[nH]3)nnc2-c2cccs2)c1,–,"inconclusive: 32.6 µM [inhibitor, single point]"
CCN1CCN(c2oc(-c3ccccc3C)nc2S(=O)(=O)c2ccccc2)CC1,inactive: -0.262%,–
C=COCCNC(=S)N1CCOCCOCCN(C(=S)NCCOC=C)CCOCC1,inactive: -3.55%,–
CN(C)CCCN(C(=O)c1sc2ccccc2c1Cl)c1nc2ccc(F)cc2s1,–,"inconclusive: 20.6 µM [activator, partial curve]"
COc1ccc(NS(=O)(=O)c2ccc3c(c2)N(C(C)=O)CCS3)cc1,–,"inconclusive: 29.1 µM [inhibitor, single point]"
O=C(COC(=O)C1CCN(c2ccc(C(F)(F)F)cn2)CC1)NCc1ccc(F)cc1,inactive: 4.43%,–
Cc1ccc2c(c1)N(C(C)C(=O)NCc1ccccn1)C(=O)CO2 (centres undefined),–,"inconclusive: 20.6 µM [inhibitor, single point]"
O=C(Nc1nnc(CCc2ccccc2)s1)c1ccccc1,–,"inconclusive: 35.5 µM [activator, single point]"
COc1ccc(NC(=O)CCSc2nc(C)cs2)cc1,–,"inconclusive: 8.2 µM [activator, partial curve]"
O=C(Nc1cccc(Cl)c1)Nc1nnc(CSCCOc2ccc(Cl)cc2)s1,–,"inconclusive: 4.61 µM [inhibitor, single point]"
COc1ccc(Cn2nnc3c(=O)[nH]c(C(=O)NCCc4ccc(F)cc4)nc32)cc1OC,–,"inconclusive: 14.6 µM [activator, partial curve, poor fit]"
Cc1ccc2nc(-c3ccccn3)cc(C(=O)Nc3ccc(S(=O)(=O)N4CCOCC4)cc3)c2c1,–,"inconclusive: 25.9 µM [inhibitor, single point]"
O=C(CC1CC2CCC1C2)N1CCN(S(=O)(=O)c2ccccc2C(F)(F)F)CC1 (centres undefined),–,active: 11.2 µM
Cc1ccc2nc(N(CCN(C)C)C(=O)/C=C/c3cccs3)sc2c1,inactive: 2.44%,–
Cc1ccccc1NS(=O)(=O)c1ccc(C(=O)N2CCN(c3ccccc3O)CC2)cc1,–,"inconclusive: 25.9 µM [inhibitor, partial curve]"
COc1ccc(NC(=O)C(CC(=O)O)C(C)c2ccccc2)cc1 (centres undefined),inactive: 0%,–
O=C(NC(=S)Nc1ccc(O)cc1)C1CCCC1,–,"inconclusive: 13 µM [activator, partial curve]"
COc1ccc(N2CCN(C(CNC(=O)C(=O)NCc3cccnc3)c3ccco3)CC2)cc1 (centres undefined),–,"inconclusive: 18.3 µM [inhibitor, partial curve]"
CCOC(=O)c1[nH]c2ccccc2c1NC(=S)Nc1cccc(C)c1C,–,"inconclusive: 20.6 µM [activator, single point]"

Structure (SMILES),"activity change, negative = inhibition",Potency
Cc1ccc(-c2nnc(N(C)C(=O)c3cccnc3)s2)cn1,–,"inconclusive: 12.6 µM [activator, partial curve]"
C/C(=N\NC(=O)C1CC1c1ccccc1)c1cccc([N+](=O)[O-])c1 (centres undefined),–,"inconclusive: 29.1 µM [inhibitor, single point]"
CCOC(=O)Cc1ccc(NC(=O)c2ccccc2Br)cc1,–,"inconclusive: 11.6 µM [activator, partial curve]"
O=C(CSc1n[nH]c(-c2ccc(S(=O)(=O)N3CCCCC3)cc2)n1)Nc1nccs1,–,"inconclusive: 32.6 µM [inhibitor, partial curve, poor fit]"
COc1ccc(CNC(=O)c2cccc3c2C(=O)N(CC2CCCO2)C3)cc1 (centres undefined),inactive: -10.4%,–
COc1ccc2c(c1)-c1nc(NC(=O)c3cccs3)sc1CC2,–,"inconclusive: 29.1 µM [inhibitor, single point]"
Cc1ccsc1-c1cc(C(=O)O)c2c(ccc3ccccc32)n1,–,"inconclusive: 16.4 µM [activator, single point]"
c1ccc(-c2nc(Sc3ncnc4c3cnn4-c3ccccc3)n[nH]2)cc1,inactive: 3.83%,–
COCC(=O)Nc1c(C(=O)Nc2cccc(OC)c2)oc2ccccc12,–,"inconclusive: 2.59 µM [activator, partial curve]"
CC1CCCCN1C(=O)c1ccc(CS(=O)(=O)Cc2ccccc2)cc1 (centres undefined),inactive: -12.3%,–
COC(=O)c1ccc(NC(=O)c2ccco2)cc1,–,"inconclusive: 5.8 µM [activator, partial curve]"
O=C(COc1ncnc2c1cnn2-c1ccccc1)Nc1ccc(S(=O)(=O)N2CCCCC2)cc1,–,"inconclusive: 25.9 µM [inhibitor, partial curve, poor fit]"
O=C(NNc1cc(N2CCOCC2)nc(N2CCOCC2)n1)c1ccc(Cl)c(Cl)c1,inactive: -3.31%,–
O=C1c2cccnc2C(=O)N1Cc1ccc(S(=O)(=O)N2CCOc3ccc(Cl)cc32)cc1,inactive: 23.6%,–
CCOc1ccc(C2=Nn3c(nnc3-c3cccnc3)SC2)cc1,–,"inconclusive: 18.4 µM [activator, single point]"
O=C(Nc1ccccc1)Nc1nnc(CSCc2ccccc2Cl)s1,–,"inconclusive: 29.1 µM [inhibitor, single point]"
Cc1ccc(NS(=O)(=O)c2ccc(C(=O)NCC3CCCO3)cc2)cc1 (centres undefined),–,"inconclusive: 18.3 µM [inhibitor, single point]"
CC(C)Cc1nnc(NC(=O)Cc2ccccc2[N+](=O)[O-])s1,–,"inconclusive: 20.6 µM [activator, single point]"
CCCNC(=O)OCc1cccnc1Sc1ccc(C)cc1,–,"inconclusive: 29.1 µM [activator, partial curve, poor fit]"
CCN(CC)CCNC(=O)c1cc2cc3ccc(OC)cc3nc2o1,–,"inconclusive: 16.4 µM [activator, partial curve, poor fit]"
CCC/C(C(=O)NCCO)=C1/c2ccccc2C(=O)N1c1ccccc1,inactive: 12.1%,–
CCCn1nc2cc(C(=O)NC3CCCc4ccccc43)ccc2c1OCC (centres undefined),inactive: -16.8%,–

# Quoted at random: three records from the list.
Structure (SMILES),"activity change, negative = inhibition",Potency
CCOc1ccc(C2=Nn3c(nnc3-c3cccnc3)SC2)cc1,–,"inconclusive: 18.4 µM [activator, single point]"
Cc1ccc(-c2nnc(N(C)C(=O)c3cccnc3)s2)cn1,–,"inconclusive: 12.6 µM [activator, partial curve]"
CCCn1nc2cc(C(=O)NC3CCCc4ccccc43)ccc2c1OCC (centres undefined),inactive: -16.8%,–
